Results deposited as PubChem BioAssay AID1259424 (University of Nebraska Medical Center, 2018).
Purpose: 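Seek colon cancer survival genes behaving like KSR1, using a six-gene signature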 (primary screen). Cell system: human HCT116 colon cancer cells. Reagent: siRNA pool against human genes, 50 nM. Measurement: 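Log2 levels of six mRNAs (branched-DNA multiplex), adjusted by two reference genes and the non-targeting median, then scored against the average KSR1 knockdown pattern as Pearson r and euclidean distance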. Direction: mean correlation with KSR1 profile and KSR1 correlation: higher = expression change more like KSR1 knockdown; mean distance from KSR1 profile: higher = expression change less like KSR1 knockdown.
This is an unselected part of about 14,000 reagents. 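Higher correlation or smaller distance means closer resemblance to KSR1 loss; control wells, including KSR1 knockdowns, recur on many plates.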 The record does not give: the time to read-out.

no.	Target gene	mean correlation with KSR1 profile	mean distance from KSR1 profile	KSR1 correlation, replicate 1	KSR1 correlation, replicate 2	KSR1 correlation, replicate 3
1	PDHX	0.296	2.84	0.41	0.131	0.327
2	SLPI	-0.226	2.35	-0.0367	-0.198	-0.356
3	NUCB1	0.175	2.52	0.0956	0.101	0.046
4	DHX33	0.0287	2.76	-0.017	0.034	-0.0462
5	CERS4	-0.157	1.59	0.119	-0.141	-0.111
6	C4B	-0.289	3.01	-0.165	-0.56	-0.179
7	TNFRSF14	-0.131	2.68	0.00531	-0.219	-0.102
8	PJA1	-0.672	1.85	-0.758	-0.693	-0.603
9	EXOSC10	-0.151	2.26	0.0798	0.149	-0.492
10	SALL1	0.0724	5.81	-0.349	0.407	0.0845
11	UBE2J2	0.398	1.12	0.648	0.144	0.0998
12	SETD3	0.664	1.9	0.581	0.589	0.523
13	CABP4	-0.675	2.46	-0.668	-0.407	-0.364
14	ADORA2B	0.891	0.745	0.843	0.88	0.918
15	FAM117B	-0.612	4.57	-0.7	-0.371	-0.43
16	THAP1	-0.681	2.49	-0.781	-0.524	-0.391
17	TADA2A	0.656	2.63	0.619	0.64	0.635
18	SERPINB5	0.542	3.22	0.686	0.668	0.331
19	FZD2	0.498	1.71	0.478	0.581	0.412
20	FXYD5	-0.551	2.36	-0.511	-0.74	-0.586
21	EPHB3	0.356	4.21	-0.0846	0.0238	0.789
22	PDGFC	-0.122	1.68	-0.224	-0.378	-0.0353
23	LRRC14	-0.787	3.42	-0.821	-0.706	-0.852
24	IL36B	0.726	1.07	0.74	0.491	0.743
25	CDH24	-0.0781	1.89	0.196	-0.408	-0.32
26	CRYGC	0.426	1.52	0.129	0.148	0.653
27	STXBP3	0.777	0.813	0.772	0.789	0.516
28	UGT2B28	-0.428	2.08	-0.485	-0.453	-0.201
29	PRSS50	-0.341	2.3	-0.439	-0.608	-0.503
30	PREX1	-0.66	2.26	-0.432	-0.763	-0.617
31	KIFC2	0.166	3.82	0.273	0.121	0.129
32	ARHGAP32	-0.372	4	-0.0736	-0.375	-0.217
33	ANKRD53	0.647	1.52	0.578	0.771	0.649
34	CDK20	0.813	1.49	0.801	0.901	0.141

Records above whose gene name begins with P or p (5):
Target gene	mean correlation with KSR1 profile	mean distance from KSR1 profile	KSR1 correlation, replicate 1	KSR1 correlation, replicate 2	KSR1 correlation, replicate 3
PDHX	0.296	2.84	0.41	0.131	0.327
PJA1	-0.672	1.85	-0.758	-0.693	-0.603
PDGFC	-0.122	1.68	-0.224	-0.378	-0.0353
PRSS50	-0.341	2.3	-0.439	-0.608	-0.503
PREX1	-0.66	2.26	-0.432	-0.763	-0.617
